No constants are given. Whether binding was seen depends on the method and setting. In cells and extracts the contact can be indirect. Some entries that bind do so weakly or less than the wild type. One block for each substance: values may come before it.
Experiments:
[1] = biological target: human L1CAM (isoform 2) (human) (UniProt P32004); assay: co-IP; HEK293 cells co-transfected; lysis in 50 mM Tris, 150 mM NaCl, 2 mM EDTA, 0.5% Triton X-100; antibody-loaded protein A-Sepharose, 3 h on ice; western blot of the partner; done in both directions
erbB3 receptor [2] = biological target: erbB3 receptor (UniProt P21860); assay: proximity ligation; Duolink In Situ on fixed HEK293 cells transfected with pcDNA3-L1CAM, pcDNA3-erbB3 and pEGFP; mouse anti-L1CAM and rabbit anti-erbB3; non-transfected cells as negative control
erbB2 receptor = erbB2 receptor (UniProt P04626); assay: co-IP; HEK293 cells co-transfected; lysis in 50 mM Tris, 150 mM NaCl, 2 mM EDTA, 0.5% Triton X-100; antibody-loaded protein A-Sepharose, 3 h on ice; western blot of the partner; done in both directions
erbB3 receptor [3] = biological target: erbB3 receptor (UniProt P21860); assay: as above
[4] = biological target: human EGFR with a myc epitope (human) (UniProt P00533); assay: as above
[5] = biological target: erbB2 receptor of P2 rat brain (rat (endogenous in P2 rat brain)) (UniProt P06494); assay: co-IP; whole brains of P2 rats, extract cross-linked with DTBP (3 mM, 45 min) before IP; IP with anti-erbB3 or anti-erbB2, blot with anti-L1CAM; non-specific anti-IgG as control
[6] = biological target: erbB3 of P2 rat brain (rat (endogenous in P2 rat brain)) (UniProt Q62799); assay: as above
[7] = biological target: erbB3 of E14 mouse brain (mouse (endogenous in E14 mouse brain)) (UniProt Q61526); assay: proximity ligation; Duolink In Situ on E14 mouse brain free-floating sections; mouse anti-L1CAM and rabbit anti-erbB3

Sequences of proteins named here, by UniProt entry; tags and fusion partners are left off. Residues count along the entry.
UniProt P21860, residues 20-1342: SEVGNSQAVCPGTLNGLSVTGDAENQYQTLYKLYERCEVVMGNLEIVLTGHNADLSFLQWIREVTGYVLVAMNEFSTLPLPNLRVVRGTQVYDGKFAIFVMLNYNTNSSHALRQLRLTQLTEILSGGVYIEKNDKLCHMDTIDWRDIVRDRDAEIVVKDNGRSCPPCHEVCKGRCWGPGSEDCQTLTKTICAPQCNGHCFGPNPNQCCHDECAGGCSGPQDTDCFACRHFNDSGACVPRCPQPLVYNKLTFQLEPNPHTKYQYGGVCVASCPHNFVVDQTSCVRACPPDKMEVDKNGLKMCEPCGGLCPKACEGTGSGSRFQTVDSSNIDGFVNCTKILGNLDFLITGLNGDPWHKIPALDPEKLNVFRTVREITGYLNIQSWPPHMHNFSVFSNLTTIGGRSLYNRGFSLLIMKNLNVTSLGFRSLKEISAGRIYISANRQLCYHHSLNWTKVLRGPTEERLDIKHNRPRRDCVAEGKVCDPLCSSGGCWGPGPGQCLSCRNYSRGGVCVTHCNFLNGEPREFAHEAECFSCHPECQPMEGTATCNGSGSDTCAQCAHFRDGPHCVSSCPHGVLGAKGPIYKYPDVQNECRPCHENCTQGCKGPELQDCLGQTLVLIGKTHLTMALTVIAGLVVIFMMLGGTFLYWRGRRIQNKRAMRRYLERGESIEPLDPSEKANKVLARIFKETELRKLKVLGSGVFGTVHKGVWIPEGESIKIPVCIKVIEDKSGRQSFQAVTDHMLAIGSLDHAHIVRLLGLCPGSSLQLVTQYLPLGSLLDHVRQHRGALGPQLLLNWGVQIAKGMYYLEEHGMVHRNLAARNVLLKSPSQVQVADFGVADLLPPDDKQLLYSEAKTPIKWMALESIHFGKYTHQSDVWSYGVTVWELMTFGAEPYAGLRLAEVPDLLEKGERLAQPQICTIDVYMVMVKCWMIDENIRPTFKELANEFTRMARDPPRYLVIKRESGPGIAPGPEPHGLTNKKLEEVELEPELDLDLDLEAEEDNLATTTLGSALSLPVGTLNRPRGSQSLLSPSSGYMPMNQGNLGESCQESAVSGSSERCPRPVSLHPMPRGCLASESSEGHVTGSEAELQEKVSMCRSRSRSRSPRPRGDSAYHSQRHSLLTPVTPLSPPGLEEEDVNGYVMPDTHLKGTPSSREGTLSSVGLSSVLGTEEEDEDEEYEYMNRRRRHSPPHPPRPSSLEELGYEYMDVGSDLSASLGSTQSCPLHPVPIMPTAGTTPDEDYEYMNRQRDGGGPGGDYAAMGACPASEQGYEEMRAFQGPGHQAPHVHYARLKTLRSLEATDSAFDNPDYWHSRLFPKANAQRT
UniProt Q62799, residues 20-1339: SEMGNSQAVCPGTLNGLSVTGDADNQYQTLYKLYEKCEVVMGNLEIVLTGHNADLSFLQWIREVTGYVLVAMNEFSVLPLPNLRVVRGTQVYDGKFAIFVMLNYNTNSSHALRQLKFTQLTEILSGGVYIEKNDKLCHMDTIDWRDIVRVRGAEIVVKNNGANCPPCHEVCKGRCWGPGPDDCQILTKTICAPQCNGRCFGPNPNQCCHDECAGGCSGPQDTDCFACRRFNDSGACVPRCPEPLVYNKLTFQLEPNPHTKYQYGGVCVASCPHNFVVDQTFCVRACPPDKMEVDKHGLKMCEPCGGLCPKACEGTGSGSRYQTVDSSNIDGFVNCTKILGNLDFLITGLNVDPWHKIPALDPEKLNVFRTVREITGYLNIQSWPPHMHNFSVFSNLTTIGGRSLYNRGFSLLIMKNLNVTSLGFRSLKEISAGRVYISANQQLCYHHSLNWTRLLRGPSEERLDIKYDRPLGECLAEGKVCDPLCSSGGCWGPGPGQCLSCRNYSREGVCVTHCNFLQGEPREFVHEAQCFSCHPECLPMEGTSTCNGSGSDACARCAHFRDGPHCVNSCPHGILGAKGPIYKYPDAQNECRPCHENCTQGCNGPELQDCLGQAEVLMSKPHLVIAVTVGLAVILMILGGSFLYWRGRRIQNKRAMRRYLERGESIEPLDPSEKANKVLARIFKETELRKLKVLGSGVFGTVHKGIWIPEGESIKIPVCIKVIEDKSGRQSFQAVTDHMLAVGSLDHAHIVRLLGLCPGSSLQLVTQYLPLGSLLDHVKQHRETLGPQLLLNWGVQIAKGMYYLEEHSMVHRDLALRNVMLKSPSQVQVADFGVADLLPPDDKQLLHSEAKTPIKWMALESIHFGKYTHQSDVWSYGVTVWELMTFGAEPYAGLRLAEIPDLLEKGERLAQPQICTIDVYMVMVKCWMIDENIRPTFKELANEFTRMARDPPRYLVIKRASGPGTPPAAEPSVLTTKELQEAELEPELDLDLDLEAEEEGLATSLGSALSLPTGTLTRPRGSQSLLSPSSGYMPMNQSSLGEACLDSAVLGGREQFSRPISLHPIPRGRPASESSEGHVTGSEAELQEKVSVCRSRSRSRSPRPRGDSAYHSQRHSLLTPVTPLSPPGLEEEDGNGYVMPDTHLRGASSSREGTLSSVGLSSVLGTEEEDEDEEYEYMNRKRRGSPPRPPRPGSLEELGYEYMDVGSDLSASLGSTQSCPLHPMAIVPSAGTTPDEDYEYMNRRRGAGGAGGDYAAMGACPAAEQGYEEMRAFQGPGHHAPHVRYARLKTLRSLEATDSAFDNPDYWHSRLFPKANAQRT
UniProt Q61526, residues 20-1339: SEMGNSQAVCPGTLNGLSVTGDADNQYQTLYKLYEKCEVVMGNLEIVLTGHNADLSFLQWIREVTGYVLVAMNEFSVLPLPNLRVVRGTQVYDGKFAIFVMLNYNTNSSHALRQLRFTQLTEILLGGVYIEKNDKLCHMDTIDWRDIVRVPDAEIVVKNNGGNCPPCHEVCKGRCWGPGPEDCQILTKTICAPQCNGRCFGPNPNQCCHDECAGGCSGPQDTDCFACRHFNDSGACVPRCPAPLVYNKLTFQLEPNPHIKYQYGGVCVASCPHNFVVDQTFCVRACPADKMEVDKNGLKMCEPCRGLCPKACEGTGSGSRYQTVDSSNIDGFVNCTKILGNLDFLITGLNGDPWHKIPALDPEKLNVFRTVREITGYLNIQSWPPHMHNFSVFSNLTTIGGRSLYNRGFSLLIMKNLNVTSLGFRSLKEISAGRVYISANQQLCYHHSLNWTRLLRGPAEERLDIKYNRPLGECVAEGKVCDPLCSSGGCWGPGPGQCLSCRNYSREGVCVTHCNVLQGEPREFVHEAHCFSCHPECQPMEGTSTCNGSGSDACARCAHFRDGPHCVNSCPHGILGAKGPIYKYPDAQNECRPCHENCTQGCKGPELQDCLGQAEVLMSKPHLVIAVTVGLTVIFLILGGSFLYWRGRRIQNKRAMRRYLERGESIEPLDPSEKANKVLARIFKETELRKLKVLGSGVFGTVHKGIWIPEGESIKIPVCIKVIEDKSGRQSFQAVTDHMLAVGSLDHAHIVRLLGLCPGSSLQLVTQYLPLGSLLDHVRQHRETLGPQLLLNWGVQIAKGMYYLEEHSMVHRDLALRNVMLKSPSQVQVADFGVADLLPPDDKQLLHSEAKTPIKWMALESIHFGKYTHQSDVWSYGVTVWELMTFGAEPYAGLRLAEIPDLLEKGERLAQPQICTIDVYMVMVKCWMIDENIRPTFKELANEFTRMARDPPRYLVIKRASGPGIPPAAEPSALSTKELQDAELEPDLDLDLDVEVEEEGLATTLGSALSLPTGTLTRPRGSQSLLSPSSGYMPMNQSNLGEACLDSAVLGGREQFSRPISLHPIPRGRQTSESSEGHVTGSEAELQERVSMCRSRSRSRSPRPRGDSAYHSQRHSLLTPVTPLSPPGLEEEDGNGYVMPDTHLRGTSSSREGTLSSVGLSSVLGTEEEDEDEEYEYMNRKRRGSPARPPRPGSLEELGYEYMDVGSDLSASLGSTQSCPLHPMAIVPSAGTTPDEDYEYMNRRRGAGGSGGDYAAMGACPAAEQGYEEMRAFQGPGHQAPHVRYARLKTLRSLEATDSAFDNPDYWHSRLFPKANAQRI
UniProt Q05695, residues 20-1259: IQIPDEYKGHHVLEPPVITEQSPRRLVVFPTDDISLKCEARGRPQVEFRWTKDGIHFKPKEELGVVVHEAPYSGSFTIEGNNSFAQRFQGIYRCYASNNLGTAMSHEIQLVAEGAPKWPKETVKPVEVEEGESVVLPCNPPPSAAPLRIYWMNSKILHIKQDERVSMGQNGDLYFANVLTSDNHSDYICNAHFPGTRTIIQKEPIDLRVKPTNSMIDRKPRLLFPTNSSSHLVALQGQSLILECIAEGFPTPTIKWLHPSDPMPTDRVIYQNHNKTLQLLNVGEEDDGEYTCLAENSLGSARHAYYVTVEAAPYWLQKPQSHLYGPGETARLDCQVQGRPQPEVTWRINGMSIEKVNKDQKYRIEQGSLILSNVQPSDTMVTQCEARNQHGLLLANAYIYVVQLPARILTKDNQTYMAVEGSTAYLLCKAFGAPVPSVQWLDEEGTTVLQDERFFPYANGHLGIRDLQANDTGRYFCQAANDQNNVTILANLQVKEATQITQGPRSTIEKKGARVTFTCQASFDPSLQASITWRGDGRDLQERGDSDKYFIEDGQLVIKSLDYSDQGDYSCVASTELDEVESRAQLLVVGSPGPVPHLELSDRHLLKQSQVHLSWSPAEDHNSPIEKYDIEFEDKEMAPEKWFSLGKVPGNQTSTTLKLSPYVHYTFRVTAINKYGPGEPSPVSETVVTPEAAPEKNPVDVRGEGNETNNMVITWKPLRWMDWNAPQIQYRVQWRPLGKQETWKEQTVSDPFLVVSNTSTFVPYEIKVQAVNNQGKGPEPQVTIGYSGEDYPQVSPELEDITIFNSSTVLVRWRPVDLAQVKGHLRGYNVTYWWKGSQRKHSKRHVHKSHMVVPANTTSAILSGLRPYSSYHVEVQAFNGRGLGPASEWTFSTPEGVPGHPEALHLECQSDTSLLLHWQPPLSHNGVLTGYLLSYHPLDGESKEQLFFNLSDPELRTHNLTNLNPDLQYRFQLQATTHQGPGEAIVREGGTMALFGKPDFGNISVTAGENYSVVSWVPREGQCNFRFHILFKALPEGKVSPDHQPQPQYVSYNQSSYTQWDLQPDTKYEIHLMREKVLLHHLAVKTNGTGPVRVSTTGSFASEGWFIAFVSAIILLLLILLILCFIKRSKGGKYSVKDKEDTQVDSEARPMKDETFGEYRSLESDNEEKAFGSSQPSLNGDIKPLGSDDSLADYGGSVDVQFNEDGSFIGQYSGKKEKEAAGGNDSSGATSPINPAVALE
UniProt P11627, residues 20-1260: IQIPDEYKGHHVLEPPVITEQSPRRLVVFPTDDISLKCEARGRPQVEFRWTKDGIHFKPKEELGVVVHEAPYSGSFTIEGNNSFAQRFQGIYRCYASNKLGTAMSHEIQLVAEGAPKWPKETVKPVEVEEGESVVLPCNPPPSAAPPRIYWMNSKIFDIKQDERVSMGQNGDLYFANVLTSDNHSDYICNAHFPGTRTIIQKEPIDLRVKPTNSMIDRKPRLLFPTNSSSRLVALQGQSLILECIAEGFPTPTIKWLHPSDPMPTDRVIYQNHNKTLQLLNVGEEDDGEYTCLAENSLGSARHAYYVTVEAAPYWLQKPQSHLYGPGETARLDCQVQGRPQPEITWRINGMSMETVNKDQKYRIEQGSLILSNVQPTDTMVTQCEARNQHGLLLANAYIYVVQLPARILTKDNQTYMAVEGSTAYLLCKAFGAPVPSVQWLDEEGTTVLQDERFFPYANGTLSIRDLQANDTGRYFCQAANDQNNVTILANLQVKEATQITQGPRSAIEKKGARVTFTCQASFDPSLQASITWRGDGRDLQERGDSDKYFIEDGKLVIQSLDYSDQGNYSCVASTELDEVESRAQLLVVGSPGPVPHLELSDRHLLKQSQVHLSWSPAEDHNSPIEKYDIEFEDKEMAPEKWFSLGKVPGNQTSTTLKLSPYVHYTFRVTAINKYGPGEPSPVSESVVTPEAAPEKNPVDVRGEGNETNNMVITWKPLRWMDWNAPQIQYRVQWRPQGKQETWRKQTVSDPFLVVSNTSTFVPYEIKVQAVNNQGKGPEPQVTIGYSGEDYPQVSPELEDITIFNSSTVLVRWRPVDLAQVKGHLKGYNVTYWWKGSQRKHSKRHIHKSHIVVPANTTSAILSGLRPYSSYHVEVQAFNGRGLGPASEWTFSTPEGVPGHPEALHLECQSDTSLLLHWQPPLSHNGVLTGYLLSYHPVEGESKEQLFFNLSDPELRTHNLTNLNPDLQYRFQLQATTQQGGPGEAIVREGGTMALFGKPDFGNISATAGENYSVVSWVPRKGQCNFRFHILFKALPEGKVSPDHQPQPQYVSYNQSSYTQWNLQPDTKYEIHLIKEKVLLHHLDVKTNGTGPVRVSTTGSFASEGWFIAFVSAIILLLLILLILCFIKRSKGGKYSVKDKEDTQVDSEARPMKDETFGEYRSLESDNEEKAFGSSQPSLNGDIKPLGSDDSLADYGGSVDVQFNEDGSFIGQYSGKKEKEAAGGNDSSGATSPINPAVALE

binding [1]: binds
Substance: human EGFR with a myc epitope (from UniProt P00533 25-1210) (receptor)

binding (erbB3 receptor [2]): binds | binding (erbB2 receptor): binds | binding (erbB3 receptor [3]): binds | binding [4]: binds
Substance: human L1CAM (isoform 2) (from UniProt P32004-2 20-1253)

binding [1]: binds
Substance: erbB2 receptor (from UniProt P04626 23-1255)

binding [1]: binds
Substance: erbB3 receptor (from UniProt P21860 20-1342)

binding [5]: binds | binding [6]: binds
Substance: endogenously expressed L1CAM of P2 rat brain (from UniProt Q05695 20-1259)

binding [7]: binds
Substance: L1CAM of E14 mouse brain (from UniProt P11627 20-1260)
